For experiment [1], the target named is GST-fusion protein of the binding domain of PAK-1 on glutathione agarose effector bed (UPSTATE) (UniProt Q13153). Nature of the experiment: effector pull-down on GST-PAK-1 binding domain agarose, anti-FLAG Western blot.
Experiment [2] shares this target. Nature of the experiment: effector pull-down on GST-PAK-1 binding domain agarose, anti-FLAG Western blot (FIG. 3-B).
Experiment [3] has as its target Cdc42 expressed as an N-terminal GST-fusion protein (Mus musculus (Mouse)) (UniProt P60766). Nature of the experiment: GST pull-down, anti-FLAG Western blot.
The target in experiment [4] is RhoA expressed as an N-terminal GST-fusion protein (Canis lupus familiaris (Dog) (Canis familiaris)) (UniProt P24406). Nature of the experiment: GST pull-down, anti-FLAG Western blot.

By UniProt entry, the sequences of proteins in these tests, tags left out. Where a name states a change or a piece, a line headed by the entry shows the natural chain unless it says otherwise. Residues count along the entry.
UniProt Q13153, residues 67-150: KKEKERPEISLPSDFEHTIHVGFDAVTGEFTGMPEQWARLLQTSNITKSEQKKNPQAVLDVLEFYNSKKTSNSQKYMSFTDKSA
UniProt P60766: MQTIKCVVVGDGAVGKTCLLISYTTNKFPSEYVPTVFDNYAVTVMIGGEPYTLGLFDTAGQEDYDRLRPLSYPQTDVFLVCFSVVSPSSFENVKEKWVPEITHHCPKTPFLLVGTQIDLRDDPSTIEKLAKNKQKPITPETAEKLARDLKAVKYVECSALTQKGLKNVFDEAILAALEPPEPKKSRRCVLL
UniProt P60953: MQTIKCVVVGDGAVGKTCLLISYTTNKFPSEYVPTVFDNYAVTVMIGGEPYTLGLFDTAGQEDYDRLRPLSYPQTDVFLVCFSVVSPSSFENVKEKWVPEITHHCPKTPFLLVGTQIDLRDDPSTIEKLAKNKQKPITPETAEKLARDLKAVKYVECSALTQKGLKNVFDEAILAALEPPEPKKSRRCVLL
UniProt P10911: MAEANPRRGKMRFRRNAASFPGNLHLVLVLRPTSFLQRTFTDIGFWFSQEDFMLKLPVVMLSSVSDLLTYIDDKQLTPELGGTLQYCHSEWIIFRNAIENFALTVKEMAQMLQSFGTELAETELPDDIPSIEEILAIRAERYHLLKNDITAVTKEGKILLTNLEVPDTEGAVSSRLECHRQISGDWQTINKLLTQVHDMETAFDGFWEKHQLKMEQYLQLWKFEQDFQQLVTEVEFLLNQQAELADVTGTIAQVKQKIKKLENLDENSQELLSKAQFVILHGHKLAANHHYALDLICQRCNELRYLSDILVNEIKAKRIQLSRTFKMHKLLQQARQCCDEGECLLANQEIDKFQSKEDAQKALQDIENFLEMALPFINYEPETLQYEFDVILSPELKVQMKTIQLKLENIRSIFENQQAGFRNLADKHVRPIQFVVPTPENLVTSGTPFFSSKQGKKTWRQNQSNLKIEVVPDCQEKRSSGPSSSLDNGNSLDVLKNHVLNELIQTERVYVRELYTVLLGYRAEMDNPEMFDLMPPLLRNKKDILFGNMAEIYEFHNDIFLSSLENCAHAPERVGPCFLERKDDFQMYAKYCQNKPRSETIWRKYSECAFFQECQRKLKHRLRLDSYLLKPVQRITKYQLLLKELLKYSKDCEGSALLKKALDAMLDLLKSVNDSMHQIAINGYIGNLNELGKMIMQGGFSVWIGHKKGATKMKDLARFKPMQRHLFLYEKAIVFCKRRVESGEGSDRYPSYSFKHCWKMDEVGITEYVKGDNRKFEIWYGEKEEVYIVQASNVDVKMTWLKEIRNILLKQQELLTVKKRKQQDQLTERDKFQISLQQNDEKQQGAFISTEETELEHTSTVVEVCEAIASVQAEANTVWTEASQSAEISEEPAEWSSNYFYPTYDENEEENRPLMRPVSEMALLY

These are yes or no findings as the source states them, for the method shown. In cells and extracts the contact can be indirect. Some results given as binding are weak or reduced against the parent protein; the word gives no strength.

Turning to “Cdc42 expressed as an N-terminal 3×FLAG-tagged protein (from UniProt P60953 1-188)”, the binding entry in experiment [1] and in experiment [2] was “binds” in each case.
In the case of “proto-Db1 DH/PH (C-terminal FLAG-tagged protein) (from UniProt P10911 494-811)”, the binding entry in experiment [3] and in experiment [4] was “binds” in each case.

Values taken from patent US20070196377A1.
